Measurements: PMC7215670
These are yes or no findings as the source states them, for the method shown.

Target: T1, LEA29 (Arabidopsis thaliana), Q9LW12
T1 chain: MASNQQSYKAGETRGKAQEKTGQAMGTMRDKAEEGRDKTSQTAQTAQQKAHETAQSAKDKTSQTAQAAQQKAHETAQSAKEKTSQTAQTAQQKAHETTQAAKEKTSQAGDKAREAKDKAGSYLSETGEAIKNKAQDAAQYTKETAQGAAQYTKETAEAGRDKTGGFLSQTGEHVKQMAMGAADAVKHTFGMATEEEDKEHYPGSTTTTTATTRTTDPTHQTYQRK
Assay: static and dynamic light scattering (SLS/DLS); protein alone in solution, fully hydrated conditions; apparent mass and hydrodynamic radius as a function of concentration, extrapolated to infinite dilution; 23 °C, scattering angle 90°; both purified
Conditions: remark: other sources report otherwise

B1: LEA29, Q9LW12 1-225 (protein)
chain: T1 chain
binding: no binding
